Substitutions are numbered along the chain they refer to. These are yes or no findings as the source states them, for the method shown. Some results given as binding are weak or reduced against the parent protein; the word gives no strength.
Experiments:
[1] = target: recombinant cynomolgus TfR-1 (cynomolgus); experiment: ELISA, plate-coated TfR-1, Fc fusions, anti-hFc HRP detection
[2] = target: recombinant human TfR-1 (human) (UniProt P02786); experiment: as above
[3] = target: recombinant human TfR-1 (human) (UniProt P02786); experiment: ELISA on coated hTfR1, crude ExpiHEK expression media, normalised to TXP1
[4] = target: recombinant human TfR-1 (human) (UniProt P02786); experiment: grade from expression level and hTfR1 binding ELISA of crude media (P preferred, A active, I inactive)
[5] = target: recombinant cynomolgus TfR-1 (cynomolgus); experiment: ELISA, plate-coated recombinant TfR1
[6] = target: recombinant human TfR-1 (human) (UniProt P02786); experiment: ELISA, plate-coated recombinant TfR1
[7] = target: recombinant human TfR-1 (human) (UniProt P02786); experiment: ELISA on coated hTfR1

B1: R2D1 (Fc fusion, not shown: a dimerising Fc or GST)
chain: ARVDQTPQTATKETGESLTINCVLRDSNCALSSTYWYRKKSGSTNEENISKGGRYVETVDSGTKSFSLKINDLTVEDSGTYRCNVVGTWCMSWRDVSGDGTVVTVNA
B1 was tested, and the binding [1] was “binds”.

B2: R2D4 (Fc fusion, not shown: a dimerising Fc or GST)
chain: ARVDQTPQTATKETGESLTINCVLRDSNCALSSTYWYRKKSGSTNEENISKGGRKYVETVESGSKSFSLKINDLTVEDSGTYRCNVVGTWCMSWRDVSGDGTVVTVNA
B2 was tested, and the binding [1] was “binds” and the binding [2] was “binds”.

B3: TXP1D4 (Fc fusion, not shown: a dimerising Fc or GST)
chain: B1 chain with R54K, D60E, T63S
In the case of B3, the binding [3] is reported as “binds”, the binding [4] is reported as “binds” and the binding [5] is reported as “binds”. For the same binder, the binding [6] was “binds”.

B4: TXP1D5 (Fc fusion, not shown: a dimerising Fc or GST)
chain: B1 chain with R54K, D60Q, T63S
In the case of B4, the binding [3] is reported as “binds”, the binding [7] is reported as “binds” and the binding [4] is reported as “binds”.

B5: TXP1-R2-9 (Fc fusion, not shown: a dimerising Fc or GST)
chain: B1 chain with A10I, R54K, D60E, T63S, S97Y, D99G, V102A
For B5, the binding [4] was “binds”.

B6: TXP1-R2-10 (Fc fusion, not shown: a dimerising Fc or GST)
chain: B1 chain with A10I, R54K, D60Q, T63S, S97Y, D99G, V102A
For B6, the binding [4] was “binds”.

B7: TXP1D1 (Fc fusion, not shown: a dimerising Fc or GST)
chain: B1 chain
With B7 the binding [5] was “binds”.

From patent US20250122298A1
